{
  "source": "patent US5912330A",
  "about": "“Crystalline maltosyl glucoside, and its production and use” (Kabushiki Kaisha Hayashibara Seibutsu Kagaku Kenkyujo, priority 1994, dated 1999)",
  "experiment": "Sweetness versus sucrose",
  "data": [
    {"smiles": "OC[C@H]1O[C@H](O[C@H]2O[C@H](CO)[C@@H](O[C@H]3O[C@H](CO)[C@@H](O)[C@H](O)[C@H]3O)[C@H](O)[C@H]2O)[C@H](O)[C@@H](O)[C@@H]1O", "note": "[maltosyl glucoside, O-α-D-glucopyranosyl-(→4)-α-D-glucopyranosyl α-D-glucopyranoside]", "values": [
      {"measurement": "equivalent aqueous sucrose solution concentration", "setting": "25% aqueous solution of maltosyl glucoside", "result": 10, "unit": "%"},
      {"measurement": "sweetening power of sucrose", "setting": "as anhydride, relative to sucrose", "result": "about 40%"}
    ]}
  ]
}
